Results published in the supplement of paper PMC12823440, “Inhibitors supercharge kinase turnover through native proteolytic circuits” (Nature, 2025).
The list shows a part of the results. The calls rarely recur for the same compound in another form.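 Kinases were expressed as nanoluciferase fusions in K562 cells and luminescence was read every 4 h between 2 and 18 h as percent of control, DMSO set to 100% and a positive control to 0%. A time point counts as decreased when the signal drops significantly (2 sigma). The hit call is the authors' own, does not follow from the count of time points alone, and its rule is not shown.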

Sequences of proteins named here, by UniProt entry; tags and fusion partners are left off. A change or cut given only in a name is not applied to a line headed by its entry.
UniProt P07949, whole entry, looked up: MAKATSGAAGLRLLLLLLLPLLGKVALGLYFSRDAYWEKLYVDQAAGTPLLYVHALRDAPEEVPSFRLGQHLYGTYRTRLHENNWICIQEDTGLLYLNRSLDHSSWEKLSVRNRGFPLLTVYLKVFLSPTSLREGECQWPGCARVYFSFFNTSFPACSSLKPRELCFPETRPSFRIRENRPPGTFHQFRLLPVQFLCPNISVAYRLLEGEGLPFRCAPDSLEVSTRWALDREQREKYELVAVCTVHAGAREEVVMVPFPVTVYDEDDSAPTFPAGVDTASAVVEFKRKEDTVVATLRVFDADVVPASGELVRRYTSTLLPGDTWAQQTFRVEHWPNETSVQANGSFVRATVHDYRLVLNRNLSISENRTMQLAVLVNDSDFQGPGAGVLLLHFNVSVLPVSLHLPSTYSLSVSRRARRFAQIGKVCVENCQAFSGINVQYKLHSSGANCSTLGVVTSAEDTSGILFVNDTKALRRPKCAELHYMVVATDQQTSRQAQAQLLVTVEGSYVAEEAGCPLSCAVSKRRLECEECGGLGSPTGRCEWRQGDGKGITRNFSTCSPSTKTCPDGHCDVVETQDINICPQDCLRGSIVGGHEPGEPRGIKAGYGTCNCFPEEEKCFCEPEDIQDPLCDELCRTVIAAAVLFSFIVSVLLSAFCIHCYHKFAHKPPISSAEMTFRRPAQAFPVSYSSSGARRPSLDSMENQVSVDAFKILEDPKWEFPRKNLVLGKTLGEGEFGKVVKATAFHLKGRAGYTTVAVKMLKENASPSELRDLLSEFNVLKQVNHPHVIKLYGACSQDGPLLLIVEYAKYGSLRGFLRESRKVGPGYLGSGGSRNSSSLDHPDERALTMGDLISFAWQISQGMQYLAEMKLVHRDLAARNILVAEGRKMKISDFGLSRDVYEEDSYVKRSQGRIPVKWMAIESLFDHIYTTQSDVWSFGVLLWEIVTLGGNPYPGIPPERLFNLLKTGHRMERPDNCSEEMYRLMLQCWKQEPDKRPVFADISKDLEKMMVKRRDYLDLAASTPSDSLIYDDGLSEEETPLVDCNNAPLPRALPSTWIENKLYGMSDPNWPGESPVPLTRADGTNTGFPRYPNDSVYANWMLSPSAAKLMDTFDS
UniProt P07949, whole entry M918T, looked up: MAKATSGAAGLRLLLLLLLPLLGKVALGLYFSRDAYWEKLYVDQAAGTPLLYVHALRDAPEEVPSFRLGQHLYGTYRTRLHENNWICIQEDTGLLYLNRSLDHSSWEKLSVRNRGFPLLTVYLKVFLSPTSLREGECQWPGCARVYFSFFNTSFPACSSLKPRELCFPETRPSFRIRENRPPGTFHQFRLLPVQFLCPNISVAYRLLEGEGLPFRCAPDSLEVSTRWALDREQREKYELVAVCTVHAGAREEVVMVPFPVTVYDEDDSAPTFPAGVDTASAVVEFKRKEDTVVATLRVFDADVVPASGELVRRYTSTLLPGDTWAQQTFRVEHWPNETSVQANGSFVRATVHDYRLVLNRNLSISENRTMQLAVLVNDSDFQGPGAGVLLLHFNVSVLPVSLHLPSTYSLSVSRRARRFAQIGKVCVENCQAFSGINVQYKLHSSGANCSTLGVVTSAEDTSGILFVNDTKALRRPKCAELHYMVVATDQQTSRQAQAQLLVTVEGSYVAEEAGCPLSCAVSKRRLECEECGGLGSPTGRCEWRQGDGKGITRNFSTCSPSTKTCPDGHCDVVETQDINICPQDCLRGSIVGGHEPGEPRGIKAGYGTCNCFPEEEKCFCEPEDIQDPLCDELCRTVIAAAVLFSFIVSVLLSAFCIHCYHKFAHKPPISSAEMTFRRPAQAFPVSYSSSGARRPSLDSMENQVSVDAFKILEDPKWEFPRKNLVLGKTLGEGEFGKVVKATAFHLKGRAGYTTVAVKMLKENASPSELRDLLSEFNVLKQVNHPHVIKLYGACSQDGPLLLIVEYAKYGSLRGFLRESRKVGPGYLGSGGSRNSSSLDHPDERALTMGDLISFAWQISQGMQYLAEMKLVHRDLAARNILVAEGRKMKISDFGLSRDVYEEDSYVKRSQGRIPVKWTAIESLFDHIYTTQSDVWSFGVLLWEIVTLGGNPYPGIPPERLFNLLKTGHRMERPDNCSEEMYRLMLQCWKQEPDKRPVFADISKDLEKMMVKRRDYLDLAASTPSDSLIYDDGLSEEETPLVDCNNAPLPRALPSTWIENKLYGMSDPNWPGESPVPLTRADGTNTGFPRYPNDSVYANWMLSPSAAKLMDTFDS
UniProt Q9BRS2: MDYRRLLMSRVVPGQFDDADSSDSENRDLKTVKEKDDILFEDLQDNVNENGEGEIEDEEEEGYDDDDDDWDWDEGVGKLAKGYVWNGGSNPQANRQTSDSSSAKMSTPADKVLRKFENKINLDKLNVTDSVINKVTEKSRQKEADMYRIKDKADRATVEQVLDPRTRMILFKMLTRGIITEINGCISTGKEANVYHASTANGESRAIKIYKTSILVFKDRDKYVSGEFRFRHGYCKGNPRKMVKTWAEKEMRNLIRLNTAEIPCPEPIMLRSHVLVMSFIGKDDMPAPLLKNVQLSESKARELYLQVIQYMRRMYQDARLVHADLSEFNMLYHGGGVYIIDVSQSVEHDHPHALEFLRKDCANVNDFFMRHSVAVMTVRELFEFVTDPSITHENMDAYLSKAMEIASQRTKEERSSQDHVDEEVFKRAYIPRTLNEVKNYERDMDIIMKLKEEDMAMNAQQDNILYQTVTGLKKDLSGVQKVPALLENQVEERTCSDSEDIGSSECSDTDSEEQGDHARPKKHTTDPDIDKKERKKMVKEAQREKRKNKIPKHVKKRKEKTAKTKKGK
UniProt Q13546: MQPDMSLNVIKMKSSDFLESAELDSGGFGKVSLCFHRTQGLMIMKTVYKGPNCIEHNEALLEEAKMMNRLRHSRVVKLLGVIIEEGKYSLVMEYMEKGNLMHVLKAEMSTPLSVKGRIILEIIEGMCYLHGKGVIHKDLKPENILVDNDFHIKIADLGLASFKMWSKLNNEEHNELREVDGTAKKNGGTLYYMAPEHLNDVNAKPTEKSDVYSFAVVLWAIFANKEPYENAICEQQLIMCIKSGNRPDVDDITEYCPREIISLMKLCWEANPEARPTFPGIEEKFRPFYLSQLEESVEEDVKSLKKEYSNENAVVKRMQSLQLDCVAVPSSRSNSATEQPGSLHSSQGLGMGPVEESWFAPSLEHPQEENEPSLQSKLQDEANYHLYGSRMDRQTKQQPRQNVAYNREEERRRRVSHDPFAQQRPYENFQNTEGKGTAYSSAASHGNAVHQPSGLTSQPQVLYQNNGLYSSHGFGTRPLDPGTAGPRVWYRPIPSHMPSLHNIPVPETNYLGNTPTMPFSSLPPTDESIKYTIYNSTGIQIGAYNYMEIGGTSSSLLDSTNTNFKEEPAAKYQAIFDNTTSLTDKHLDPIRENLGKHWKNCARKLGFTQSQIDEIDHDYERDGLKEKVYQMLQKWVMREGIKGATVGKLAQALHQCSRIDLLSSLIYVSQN
UniProt Q15418, whole entry: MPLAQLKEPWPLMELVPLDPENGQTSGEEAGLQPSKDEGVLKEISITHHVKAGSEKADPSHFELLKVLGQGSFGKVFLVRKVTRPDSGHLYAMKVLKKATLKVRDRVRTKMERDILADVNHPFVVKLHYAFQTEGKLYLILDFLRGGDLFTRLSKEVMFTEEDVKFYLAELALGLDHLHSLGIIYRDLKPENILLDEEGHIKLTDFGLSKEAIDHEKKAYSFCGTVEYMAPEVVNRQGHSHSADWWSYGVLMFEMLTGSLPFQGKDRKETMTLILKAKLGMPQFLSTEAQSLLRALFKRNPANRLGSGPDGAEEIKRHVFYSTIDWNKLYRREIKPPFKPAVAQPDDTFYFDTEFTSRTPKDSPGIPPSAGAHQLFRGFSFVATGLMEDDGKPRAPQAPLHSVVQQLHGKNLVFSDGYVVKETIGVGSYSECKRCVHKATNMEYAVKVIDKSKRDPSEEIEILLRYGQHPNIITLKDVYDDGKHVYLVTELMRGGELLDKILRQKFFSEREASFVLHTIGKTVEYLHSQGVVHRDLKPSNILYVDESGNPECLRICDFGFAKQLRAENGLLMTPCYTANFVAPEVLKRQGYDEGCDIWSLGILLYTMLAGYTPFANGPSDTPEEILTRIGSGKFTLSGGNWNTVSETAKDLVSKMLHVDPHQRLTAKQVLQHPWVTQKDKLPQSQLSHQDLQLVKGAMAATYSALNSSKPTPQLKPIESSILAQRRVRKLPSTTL
UniProt Q9Y6E0: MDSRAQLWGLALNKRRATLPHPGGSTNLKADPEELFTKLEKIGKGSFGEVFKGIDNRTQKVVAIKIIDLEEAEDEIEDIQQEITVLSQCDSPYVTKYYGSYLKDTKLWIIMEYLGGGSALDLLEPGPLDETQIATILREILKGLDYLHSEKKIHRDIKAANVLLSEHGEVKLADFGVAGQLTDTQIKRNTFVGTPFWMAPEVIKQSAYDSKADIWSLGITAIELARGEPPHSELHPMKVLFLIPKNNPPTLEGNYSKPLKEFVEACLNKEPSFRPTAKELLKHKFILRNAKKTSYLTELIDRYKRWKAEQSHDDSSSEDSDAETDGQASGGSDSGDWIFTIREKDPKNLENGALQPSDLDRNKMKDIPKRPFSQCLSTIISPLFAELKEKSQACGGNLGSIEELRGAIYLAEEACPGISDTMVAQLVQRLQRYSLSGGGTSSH
UniProt Q15208: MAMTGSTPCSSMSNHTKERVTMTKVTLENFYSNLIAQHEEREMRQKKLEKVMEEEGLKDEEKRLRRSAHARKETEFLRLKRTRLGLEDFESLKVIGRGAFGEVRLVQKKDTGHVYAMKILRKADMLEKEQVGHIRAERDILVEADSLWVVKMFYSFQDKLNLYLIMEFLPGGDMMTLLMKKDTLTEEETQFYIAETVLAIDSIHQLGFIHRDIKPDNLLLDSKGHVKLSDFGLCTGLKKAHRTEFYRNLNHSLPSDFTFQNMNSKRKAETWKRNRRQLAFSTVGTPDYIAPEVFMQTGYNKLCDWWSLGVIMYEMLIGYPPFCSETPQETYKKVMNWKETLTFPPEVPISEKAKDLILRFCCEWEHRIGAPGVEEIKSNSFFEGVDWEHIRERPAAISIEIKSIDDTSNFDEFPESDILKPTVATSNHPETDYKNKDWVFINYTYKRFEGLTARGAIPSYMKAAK
UniProt P42680: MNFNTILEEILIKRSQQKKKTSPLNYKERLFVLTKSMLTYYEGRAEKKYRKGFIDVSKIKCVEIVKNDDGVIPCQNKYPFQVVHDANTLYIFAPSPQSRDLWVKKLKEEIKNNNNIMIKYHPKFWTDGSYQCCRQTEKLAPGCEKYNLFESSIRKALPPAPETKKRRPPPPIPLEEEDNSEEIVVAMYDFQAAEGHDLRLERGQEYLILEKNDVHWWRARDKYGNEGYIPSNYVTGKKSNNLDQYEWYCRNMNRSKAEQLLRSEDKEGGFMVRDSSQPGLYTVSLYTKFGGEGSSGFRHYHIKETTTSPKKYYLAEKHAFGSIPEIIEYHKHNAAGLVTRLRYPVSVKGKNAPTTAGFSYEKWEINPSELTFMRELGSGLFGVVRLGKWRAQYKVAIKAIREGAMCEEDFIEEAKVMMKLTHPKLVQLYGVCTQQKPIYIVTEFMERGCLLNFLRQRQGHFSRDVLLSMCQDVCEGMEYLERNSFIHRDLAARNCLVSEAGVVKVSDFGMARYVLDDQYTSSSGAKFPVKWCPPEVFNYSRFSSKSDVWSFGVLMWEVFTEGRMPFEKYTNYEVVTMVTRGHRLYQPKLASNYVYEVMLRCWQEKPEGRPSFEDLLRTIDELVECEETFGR
UniProt P31749: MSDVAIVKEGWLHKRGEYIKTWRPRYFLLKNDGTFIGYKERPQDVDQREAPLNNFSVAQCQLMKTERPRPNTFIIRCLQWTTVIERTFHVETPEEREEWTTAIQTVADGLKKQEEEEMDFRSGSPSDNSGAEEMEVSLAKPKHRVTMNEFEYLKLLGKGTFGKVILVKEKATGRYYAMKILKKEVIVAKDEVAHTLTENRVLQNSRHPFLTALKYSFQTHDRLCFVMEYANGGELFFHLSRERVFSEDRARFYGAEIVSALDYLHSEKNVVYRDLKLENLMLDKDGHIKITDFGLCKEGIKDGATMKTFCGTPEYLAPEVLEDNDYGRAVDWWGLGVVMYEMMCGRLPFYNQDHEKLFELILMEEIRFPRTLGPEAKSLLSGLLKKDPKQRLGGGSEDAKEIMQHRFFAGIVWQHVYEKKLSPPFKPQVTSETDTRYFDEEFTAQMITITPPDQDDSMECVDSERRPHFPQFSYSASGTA

How the values were obtained:
Conditions in all cases: K562; 2-18 h
RET = RET (UniProt P07949); experiment: kinase-Nluc reporter destabilization hit call (1 = scored as downregulated) (binary); higher = compound decreases kinase abundance
[1] = target: RET_M918T (clone: RET_mut) (UniProt P07949); experiment: as above
RIOK1 = RIOK1 (UniProt Q9BRS2); experiment: as above
RIPK1 = RIPK1 (UniProt Q13546); experiment: as above
RIPK2 = RIPK2 (UniProt O43353); experiment: as above
ROR2 = ROR2 (UniProt Q01974); experiment: as above
RPS6KA1 = RPS6KA1 (UniProt Q15418); experiment: as above
SPHK1 = SPHK1 (UniProt Q9NYA1); experiment: as above
SRC = SRC (UniProt P12931); experiment: as above
STK24 = STK24 (UniProt Q9Y6E0); experiment: as above
STK38 = STK38 (UniProt Q15208); experiment: as above
SYK = SYK (UniProt P43405); experiment: as above
TEC = TEC (UniProt P42680); experiment: as above
TYK2 = TYK2 (UniProt P29597); experiment: as above
ULK3 = ULK3 (UniProt Q6PHR2); experiment: as above
YES1 = YES1 (UniProt P07947); experiment: as above
ZAK = ZAK (UniProt Q9NYL2); experiment: as above
ZAP70 = ZAP70 (UniProt P43403); experiment: as above
ABL1 = ABL1 (UniProt P00519); experiment: number of time points (of 5) at which kinase-Nluc abundance scored as decreased, DMSO-normalised (count); higher = more persistent destabilization
AKT1 = AKT1 (UniProt P31749); experiment: as above

SMILES	kinase-Nluc reporter destabilization hit call (RET)	kinase-Nluc reporter destabilization hit call [1]	kinase-Nluc reporter destabilization hit call (RIOK1)	kinase-Nluc reporter destabilization hit call (RIPK1)	kinase-Nluc reporter destabilization hit call (RIPK2)	kinase-Nluc reporter destabilization hit call (ROR2)	kinase-Nluc reporter destabilization hit call (RPS6KA1)	kinase-Nluc reporter destabilization hit call (SPHK1)	kinase-Nluc reporter destabilization hit call (SRC)	kinase-Nluc reporter destabilization hit call (STK24)	kinase-Nluc reporter destabilization hit call (STK38)	kinase-Nluc reporter destabilization hit call (SYK)	kinase-Nluc reporter destabilization hit call (TEC)	kinase-Nluc reporter destabilization hit call (TYK2)	kinase-Nluc reporter destabilization hit call (ULK3)	kinase-Nluc reporter destabilization hit call (YES1)	kinase-Nluc reporter destabilization hit call (ZAK)	kinase-Nluc reporter destabilization hit call (ZAP70)	number of time points (ABL1)	number of time points (AKT1)
O=c1ccc2cc(O)c(O)cc2o1 [Esculetin] (10 µM)	inactive: 0	inactive: 0	inactive: 0	inactive: 0	inactive: 0	inactive: 0	inactive: 0	inactive: 0	inactive: 0	inactive: 0	inactive: 0	inactive: 0	inactive: 0	inactive: 0	inactive: 0	inactive: 0	inactive: 0	inactive: 0	0	0
CCN1C(C)(C)CC(Oc2ccc(C(=O)Nc3ccc(NC(=O)Nc4cc(C(C)(C)C)on4)cc3)nc2)CC1(C)C (10 µM)	inactive: 0	inactive: 0	inactive: 0	inactive: 0	inactive: 0	inactive: 0	inactive: 0	inactive: 0	inactive: 0	inactive: 0	inactive: 0	inactive: 0	inactive: 0	inactive: 0	inactive: 0	inactive: 0	inactive: 0	inactive: 0	0	0
Cc1ccc(-n2c(-c3ccc(O)cc3O)n[nH]c2=O)cc1 (10 µM)	inactive: 0	inactive: 0	inactive: 0	inactive: 0	inactive: 0	inactive: 0	inactive: 0	inactive: 0	inactive: 0	inactive: 0	inactive: 0	inactive: 0	inactive: 0	active: 1	active: 1	inactive: 0	inactive: 0	inactive: 0	0	0
C[C@@H]1CN(CC(=O)Nc2ccc3c(c2)Cc2cccc(-c4cc(=O)cc(N5CCOCC5)o4)c2S3)C[C@H](C)O1 (2.5 µM)	inactive: 0	inactive: 0	inactive: 0	inactive: 0	inactive: 0	inactive: 0	inactive: 0	inactive: 0	inactive: 0	inactive: 0	inactive: 0	inactive: 0	inactive: 0	inactive: 0	inactive: 0	inactive: 0	inactive: 0	inactive: 0	0	0
O=C(Nc1nccs1)C(c1cc(F)ccc1O)N1Cc2ccccc2C1=O (stereo not given) (10 µM)	inactive: 0	inactive: 0	inactive: 0	inactive: 0	inactive: 0	inactive: 0	inactive: 0	inactive: 0	inactive: 0	inactive: 0	inactive: 0	inactive: 0	inactive: 0	inactive: 0	inactive: 0	inactive: 0	inactive: 0	inactive: 0	0	0
CC(C)(C)NS(=O)(=O)c1cncc(-c2cc(F)c3nc(N)nn3c2)c1 (10 µM)	inactive: 0	inactive: 0	inactive: 0	inactive: 0	inactive: 0	inactive: 0	inactive: 0	inactive: 0	inactive: 0	inactive: 0	inactive: 0	inactive: 0	inactive: 0	inactive: 0	inactive: 0	inactive: 0	inactive: 0	inactive: 0	0	0
CNC(=O)c1nnc(NC(=O)C2CC2)cc1Nc1cccc(-c2ncn(C)n2)c1OC [Deucravacitinib] (10 µM)	inactive: 0	inactive: 0	inactive: 0	inactive: 0	inactive: 0	inactive: 0	inactive: 0	inactive: 0	inactive: 0	inactive: 0	inactive: 0	inactive: 0	inactive: 0	inactive: 0	inactive: 0	inactive: 0	inactive: 0	inactive: 0	0	0
C=CC(=O)Nc1cccc(Oc2nc(Nc3ccc(N4CCN(C)CC4)cc3)ncc2Cl)c1 (2.5 µM)	inactive: 0	inactive: 0	inactive: 0	inactive: 0	inactive: 0	inactive: 0	inactive: 0	inactive: 0	inactive: 0	inactive: 0	inactive: 0	inactive: 0	inactive: 0	inactive: 0	inactive: 0	inactive: 0	inactive: 0	inactive: 0	0	0
CN(C)C(=O)c1cc2cnc(Nc3ccc(NC(=O)C4(C(=O)Nc5ccc(F)cc5)CC4)cc3)nc2n1C1CCCC1 (2 µM)	inactive: 0	inactive: 0	inactive: 0	inactive: 0	inactive: 0	inactive: 0	inactive: 0	inactive: 0	inactive: 0	inactive: 0	inactive: 0	inactive: 0	inactive: 0	inactive: 0	inactive: 0	inactive: 0	inactive: 0	inactive: 0	0	0

2 compounds from above, showing only kinase-Nluc reporter destabilization hit call (SPHK1):
SMILES | kinase-Nluc reporter destabilization hit call (SPHK1)
C[C@@H]1CN(CC(=O)Nc2ccc3c(c2)Cc2cccc(-c4cc(=O)cc(N5CCOCC5)o4)c2S3)C[C@H](C)O1 (2.5 µM) | inactive: 0
O=C(Nc1nccs1)C(c1cc(F)ccc1O)N1Cc2ccccc2C1=O (stereo not given) (10 µM) | inactive: 0
